This note sets out measurements from patent US20210318322A1.

No constants are given. Whether binding was seen depends on the method and setting. Some entries that bind do so weakly or less than the wild type.

Experiment [1] addresses cynomolgus VISTA expressed on K562 cells (cynomolgus). Description: FACS. (In general: In flow cytometry, cells or beads pass a laser one at a time.)
Experiment [2] concerns the target cynomolgus VISTA extracellular domain (cynomolgus). Description: ELISA. (In general: In an ELISA, binding on a coated surface is turned into a signal by an enzyme label.)

B1: VSTB50 (antibody, human IgG1, kappa, V domains shown)
VH: QVQLVQSGSELKKPGASVKVSCKASGYTFTNYGLNWVRQAPGQGLEWMGWINPYTGEPTYADDFKGRFVFSLDTSVSTAYLQICSLKAEDTAVYYCAREGYGNYIFPYWGQGTLVTVSS
VL: DIVMTQTPLSLSVTPGQPASISCRASESVDTYANSLMHWYLQKPGQPPQLLIYRASNLESGVPDRFSGSGSGTDFTLKISRVEAEDVGVYYCQQTNEDPRTFGQGTKLEIKR
Regarding B1, the binding entry in experiment [1] and in experiment [2] was “binds” throughout.

B2: VSTB60 (antibody, human IgG1, kappa, V domains shown)
VH: QVQLVQSGSELKKPGASVKVSCKASGYTFTNYGMTWVRQAPGQGLEWMGWINTYTGESTYADDFKGRFVFSLDTSVSTAYLQICSLKAEDTAVYYCARDYYGIYVSAYWGQGTLVTVSS
VL: DIVMTQTPLSLSVTPGQPASISCRASESVDNYANSFMHWYLQKPGQSPQLLIYRASNLESGVPDRFSGSGSGTDFTLKISRVEAEDVGVYYCQQSHEDPYTFGQGTKLEIKR
Consider B2, for which the binding entry in experiment [1] and in experiment [2] was “binds” in each case.

B3: VSTB95 (antibody, human IgG1, kappa, V domains shown)
VH: EVQLVESGGGLVQPGGSLRLSCAASGFTFRNYGMSWVRQAPGKGLEWVASIISGGSYTYYPDSVKGRFTISRDNAKNSLYLQMNSLRAEDTAVYYCARIYDHDGDYYAMDYWGQGTTVTVSS
VL: DIVMTQSPLSLPVTPGEPASISCRSSQSIVHSNGNTYLEWYLQKPGQSPQLLIYKVSNRFSGVPDRFSGSGSGTDFTLKISRVEAEDVGVYYCFQGSHVPWTFGQGTKLEIKR
As for B3, the binding result in experiment [1] and in experiment [2] was “binds” each time.

B4: VSTB53 (antibody, human IgG1, kappa, V domains shown)
VH: QVQLVQSGAEVKKPGASVKVSCKASGYTFTHYTIHWVRQAPGQGLEWMGYIIPSSGYSEYNQKFKDRVTMTRDTSTSTVYMELSSLRSEDTAVYYCARGAYDDYYDYYAMDYWGQGTLVTVSS
VL: DIVMTQSPLSLPVTPGEPASISCRSSQTIVHSNGNTYLEWYLQKPGQSPQLLIYKVSNRFSGVPDRFSGSGSGTDFTLKISRVEAEDVGVYYCFQASHVPWTFGQGTKLEIKR
Turning to B4, the binding result in experiment [1] and in experiment [2] was “binds” in each case.
